Record: PubChem BioAssay AID1259254 (NCATS, 2017)
Aim: 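Genome-wide screen for genes that prevent DNA re-replication in cancer cells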 (primary screen). Cells: human HCT116 colorectal cancer cells. Reagents: single siRNA against human genes. Duration: 3 days. Detection: 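Imaged Hoechst DNA stain sorts each cell into a cycle phase by DNA amount; per plate, G2 fraction set to 0% for non-targeting and 100% for GMNN siRNA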. Reading the numbers: G2 robust z-score: higher = more G2 cells, more excess DNA replication. Hit rule: 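Active siRNAs have a G2 robust z of 5 or more median absolute deviations over the median, which in these data means about 38% or higher of GMNN control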.
In all, the deposit lists about 59,000 reagents; below is a part drawn at random. In the full data, about 1,550 (2.6%) are marked active. 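G2 share is only a proxy for re-replication; each gene was hit by three separate siRNAs, and active genes were retested.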 Reagents against one gene are numbered here. Further read-outs or replicates are left out here. Reagent sequences are not shown. The record does not give: the amount of reagent.

gene symbol	reagent	G2 robust z-score	activity call
CERS5 (GeneID 91012)	1	0.0115	inactive
CERS5 (GeneID 91012)	2	-0.44	inactive
CERS5 (GeneID 91012)	3	-0.779	inactive
DDX41 (GeneID 51428)	1	0.289	inactive
DDX41 (GeneID 51428)	2	-0.793	inactive
DDX41 (GeneID 51428)	3	0.268	inactive
AR (GeneID 367)	1	-0.511	inactive
AR (GeneID 367)	2	2.64	inactive
AR (GeneID 367)	3	0.529	inactive
DMC1 (GeneID 11144)	1	-1.09	inactive
DMC1 (GeneID 11144)	2	6.58	active
DMC1 (GeneID 11144)	3	0.137	inactive
SAR1B (GeneID 51128)	1	5.61	active
SAR1B (GeneID 51128)	2	-0.855	inactive
SAR1B (GeneID 51128)	3	0.697	inactive
RIOX2 (GeneID 84864)	1	-0.971	inactive
RIOX2 (GeneID 84864)	2	2.37	inactive
RIOX2 (GeneID 84864)	3	-0.202	inactive
ARF4 (GeneID 378)	1	-0.302	inactive
ARF4 (GeneID 378)	2	1.61	inactive
ARF4 (GeneID 378)	3	0.234	inactive
CYP3A7 (GeneID 1551)	1	-1	inactive
CYP3A7 (GeneID 1551)	2	0.76	inactive
CYP3A7 (GeneID 1551)	3	-0.916	inactive
GALNT10 (GeneID 55568)	1	-0.458	inactive
GALNT10 (GeneID 55568)	2	0.226	inactive
GALNT10 (GeneID 55568)	3	-0.482	inactive
HMGCR (GeneID 3156)	1	2.04	inactive
HMGCR (GeneID 3156)	2	3.51	inactive
HMGCR (GeneID 3156)	3	1.58	inactive
ZBTB7B (GeneID 51043)	1	0.183	inactive
ZBTB7B (GeneID 51043)	2	-0.704	inactive
ZBTB7B (GeneID 51043)	3	-0.325	inactive
C1orf226 (GeneID 400793)	1	0.284	inactive
C1orf226 (GeneID 400793)	2	0.185	inactive
C1orf226 (GeneID 400793)	3	5.85	active
EMC10 (GeneID 284361)	1	2.1	inactive
EMC10 (GeneID 284361)	2	3.33	inactive
EMC10 (GeneID 284361)	3	0.844	inactive
IL9 (GeneID 3578)	1	0.469	inactive
IL9 (GeneID 3578)	2	-0.444	inactive
IL9 (GeneID 3578)	3	0.199	inactive
ABCC6P1 (GeneID 653190)	1	5.85	active
ABCC6P1 (GeneID 653190)	2	1.02	inactive
ABCC6P1 (GeneID 653190)	3	-0.875	inactive
RAC1 (GeneID 5879)	1	8.56	active
RAC1 (GeneID 5879)	2	2.25	inactive
RAC1 (GeneID 5879)	3	1.63	inactive
ARMC5 (GeneID 79798)	1	-0.281	inactive
ARMC5 (GeneID 79798)	2	0.27	inactive
ARMC5 (GeneID 79798)	3	-0.721	inactive

Next part; the last 4 above are carried over.
gene symbol	reagent	G2 robust z-score	activity call
RAC1 (GeneID 5879)	3	1.63	inactive
ARMC5 (GeneID 79798)	1	-0.281	inactive
ARMC5 (GeneID 79798)	2	0.27	inactive
ARMC5 (GeneID 79798)	3	-0.721	inactive
MROH7 (GeneID 374977)	1	-0.716	inactive
MROH7 (GeneID 374977)	2	-0.175	inactive
MROH7 (GeneID 374977)	3	2.34	inactive
POU2F1 (GeneID 5451)	1	-0.0425	inactive
POU2F1 (GeneID 5451)	2	1.12	inactive
POU2F1 (GeneID 5451)	3	0.0721	inactive
KLK10 (GeneID 5655)	1	-0.697	inactive
KLK10 (GeneID 5655)	2	0.422	inactive
KLK10 (GeneID 5655)	3	-0.111	inactive
FOXD4L4 (GeneID 349334)	1	1.94	inactive
FOXD4L4 (GeneID 349334)	2	1.02	inactive
FOXD4L4 (GeneID 349334)	3	-0.275	inactive
IQCN (GeneID 80726)	1	2.34	inactive
IQCN (GeneID 80726)	2	0.664	inactive
IQCN (GeneID 80726)	3	-0.725	inactive
LDLRAD3 (GeneID 143458)	1	-0.228	inactive
LDLRAD3 (GeneID 143458)	2	-0.624	inactive
LDLRAD3 (GeneID 143458)	3	-0.947	inactive
LYPLA2P2 (GeneID 388499)	1	1.03	inactive
LYPLA2P2 (GeneID 388499)	2	0.374	inactive
LYPLA2P2 (GeneID 388499)	3	0.000826	inactive
FUT6 (GeneID 2528)	1	-0.296	inactive
FUT6 (GeneID 2528)	2	1.91	inactive
FUT6 (GeneID 2528)	3	-1.21	inactive
GFI1B (GeneID 8328)	1	-0.98	inactive
GFI1B (GeneID 8328)	2	-0.252	inactive
GFI1B (GeneID 8328)	3	-0.12	inactive
H4C6 (GeneID 8361)	1	5.72	active
H4C6 (GeneID 8361)	2	0.047	inactive
H4C6 (GeneID 8361)	3	0.992	inactive
KCNJ4 (GeneID 3761)	1	-0.141	inactive
KCNJ4 (GeneID 3761)	2	6.16	active
KCNJ4 (GeneID 3761)	3	1.15	inactive
PPP1R8 (GeneID 5511)	1	-1.28	inactive
PPP1R8 (GeneID 5511)	2	-0.139	inactive
PPP1R8 (GeneID 5511)	3	-1.12	inactive
